These are yes or no findings as the source states them, for the method shown. In cells and extracts the contact can be indirect. These calls come from enrichment with a bait or labelling near it, and not all partners need be listed. Sequences can lack the tags named with a protein.
B1: protocadherin-18 (protein, UniProt Q9HCL0 28-1135)
chain: KNLKYRIYEEQRVGSVIARLSEDVADVLLKLPNPSTVRFRAMQRGNSPLLVVNEDNGEISIGATIDREQLCQKNLNCSIEFDVITLPTEHLQLFHIEVEVLDINDNSPQFSRSLIPIEISESAAVGTRIPLDSAFDPDVGENSLHTYSLSANDFFNIEVRTRTDGAKYAELIVVRELDRELKSSYELQLTASDMGVPQRSGSSILKISISDSNDNSPAFEQQSYIIQLLENSPVGTLLLDLNATDPDEGANGKIVYSFSSHVSPKIMETFKIDSERGHLTLFKQVDYEITKSYEIDVQAQDLGPNSIPAHCKIIIKVVDVNDNKPEININLMSPGKEEISYIFEGDPIDTFVALVRVQDKDSGLNGEIVCKLHGHGHFKLQKTYENNYLILTNATLDREKRSEYSLTVIAEDRGTPSLSTVKHFTVQINDINDNPPHFQRSRYEFVISENNSPGAYITTVTATDPDLGENGQVTYTILESFILGSSITTYVTIDPSNGAIYALRIFDHEEVSQITFVVEARDGGSPKQLVSNTTVVLTIIDENDNVPVVIGPALRNNTAEITIPKGAESGFHVTRIRAIDRDSGVNAELSCAIVAGNEENIFIIDPRSCDIHTNVSMDSVPYTEWELSVIIQDKGNPQLHTKVLLKCMIFEYAESVTSTAMTSVSQASLDVSMIIIISLGAICAVLLVIMVLFATRCNREKKDTRSYNCRVAESTYQHHPKRPSRQIHKGDITLVPTINGTLPIRSHHRSSPSSSPTLERGQMGSRQSHNSHQSLNSLVTISSNHVPENFSLELTHATPAVEQVSQLLSMLHQGQYQPRPSFRGNKYSRSYRYALQDMDKFSLKDSGRGDSEAGDSDYDLGRDSPIDRLLGEGFSDLFLTDGRIPAAMRLCTEECRVLGHSDQCWMPPLPSPSSDYRSNMFIPGEEFPTQPQQQHPHQSLEDDAQPADSGEKKKSFSTFGKDSPNDEDTGDTSTSSLLSEMSSVFQRLLPPSLDTYSECSEVDRSNSLERRKGPLPAKTVGYPQGVAAWAASTHFQNPTTNCGPPLGTHSSVQPSSKWLPAMEEIPENYEEDDFDNVLNHLNDGKHELMDASELVAEINKLLQDVRQS
B2: Peroxiredoxin-1 (PRDX1) (enzyme, UniProt Q06830 1-199)
chain: MSSGNAKIGHPAPNFKATAVMPDGQFKDISLSDYKGKYVVFFFYPLDFTFVCPTEIIAFSDRAEEFKKLNCQVIGASVDSHFCHLAWVNTPKKQGGLGPMNIPLVSDPKRTIAQDYGVLKADEGISFRGLFIIDDKGILRQITVNDLPVGRSVDETLRLVQAFQFTDKHGEVCPAGWKPGSDTIKPDVQKSKEYFSKQK
B3: Peroxiredoxin-2 (PRDX2) (enzyme, UniProt P32119 1-198)
chain: MASGNARIGKPAPDFKATAVVDGAFKEVKLSDYKGKYVVLFFYPLDFTFVCPTEIIAFSNRAEDFRKLGCEVLGVSVDSQFTHLAWINTPRKEGGLGPLNIPLLADVTRRLSEDYGVLKTDEGIAYRGLFIIDGKGVLRQITVNDLPVGRSVDEALRLVQAFQYTDEHGEVCPAGWKPGSDTIKPNVDDSKEYFSKHN
B4: Dihydrolipoamide dehydrogenase (DLDH) (enzyme, UniProt P09622 36-509)
chain: ADQPIDADVTVIGSGPGGYVAAIKAAQLGFKTVCIEKNETLGGTCLNVGCIPSKALLNNSHYYHMAHGKDFASRGIEMSEVRLNLDKMMEQKSTAVKALTGGIAHLFKQNKVVHVNGYGKITGKNQVTATKADGGTQVIDTKNILIATGSEVTPFPGITIDEDTIVSSTGALSLKKVPEKMVVIGAGVIGVELGSVWQRLGADVTAVEFLGHVGGVGIDMEISKNFQRILQKQGFKFKLNTKVTGATKKSDGKIDVSIEAASGGKAEVITCDVLLVCIGRRPFTKNLGLEELGIELDPRGRIPVNTRFQTKIPNIYAIGDVVAGPMLAHKAEDEGIICVEGMAGGAVHIDYNCVPSVIYTHPEVAWVGKSEEQLKEEGIEYKVGKFPFAANSRAKTNADTDGMVKILGQKSTDRVLGAHILGPGAGEMVNEAALALEYGASCEDIARVCHAHPTLSEAFREANLAASFGKSINF
B5: Methylmalonic aciduria and homocystinuria type D protein, mitochondrial (MMAD) (protein, UniProt Q9H3L0 39-296)
chain: SDESHVAAAPPDICSRTVWPDETMGPFGPQDQRFQLPGNIGFDCHLNGTASQKKSLVHKTLPDVLAEPLSSERHEFVMAQYVNEFQGNDAPVEQEINSAETYFESARVECAIQTCPELLRKDFESLFPEVANGKLMILTVTQKTKNDMTVWSEEVEIEREVLLEKFINGAKEICYALRAEGYWADFIDPSSGLAFFGPYTNNTLFETDERYRHLGFSVDDLGCCKVIRHSLWGTHVVVGSIFTNATPDSHIMKKLSGN
B6: Thioredoxin2 (THIO2) (protein, UniProt Q99757 60-166)
chain: TTFNIQDGPDFQDRVVNSETPVVVDFHAQWCGPCKILGPRLEKMVAKQHGKVVMAKVDIDDHTDLAIEYEVSAVPTVLAMKNGDVVDKFVGIKDEDQLEAFLKKLIG
B7: Coenzyme Q biosynthesis monooxygenase (CoQ6) (enzyme, UniProt Q9Y2Z9 29-468)
chain: GASTDTVYDVVVSGGGLVGAAMACALGYDIHFHDKKILLLEAGPKKVLEKLSETYSNRVSSISPGSATLLSSFGAWDHICNMRYRAFRRMQVWDACSEALIMFDKDNLDDMGYIVENDVIMHALTKQLEAVSDRVTVLYRSKAIRYTWPCPFPMADSSPWVHITLGDGSTFQTKLLIGADGHNSGVRQAVGIQNVSWNYDQSAVVATLHLSEATENNVAWQRFLPSGPIALLPLSDTLSSLVWSTSHEHAAELVSMDEEKFVDAVNSAFWSDADHTDFIDTAGAMLQYAVSLLKPTKVSARQLPPSVARVDAKSRVLFPLGLGHAAEYVRPRVALIGDAAHRVHPLAGQGVNMGFGDISSLAHHLSTAAFNGKDLGSVSHLTGYETERQRHNTALLAATDLLKRLYSTSASPLVLLRTWGLQATNAVSPLKEQIMAFASK
B8: 60 kDa heat shock protein, mitochondrial (HSP60), P10809 27-573 (protein)
chain: AKDVKFGADARALMLQGVDLLADAVAVTMGPKGRTVIIEQSWGSPKVTKDGVTVAKSIDLKDKYKNIGAKLVQDVANNTNEEAGDGTTTATVLARSIAKEGFEKISKGANPVEIRRGVMLAVDAVIAELKKQSKPVTTPEEIAQVATISANGDKEIGNIISDAMKKVGRKGVITVKDGKTLNDELEIIEGMKFDRGYISPYFINTSKGQKCEFQDAYVLLSEKKISSIQSIVPALEIANAHRKPLVIIAEDVDGEALSTLVLNRLKVGLQVVAVKAPGFGDNRKNQLKDMAIATGGAVFGEEGLTLNLEDVQPHDLGKVGEVIVTKDDAMLLKGKGDKAQIEKRIQEIIEQLDVTTSEYEKEKLNERLAKLSDGVAVLKVGGTSDVEVNEKKDRVTDALNATRAAVEEGIVLGGGCALLRCIPALDSLTPANEDQKIGIEIIKRTLKIPAMTIAKNAGVEGSLIVEKIMQSSSEVGYDAMAGDFVNMVEKGIIDPTKVVRTALLDAAGVASLLTTAEVVVTEIPKEEKDPGMGAMGGMGGGMGGGMF

Target: T1, Human Lon protease with Myc tag (human) (UniProt P36776)
T1 sequence: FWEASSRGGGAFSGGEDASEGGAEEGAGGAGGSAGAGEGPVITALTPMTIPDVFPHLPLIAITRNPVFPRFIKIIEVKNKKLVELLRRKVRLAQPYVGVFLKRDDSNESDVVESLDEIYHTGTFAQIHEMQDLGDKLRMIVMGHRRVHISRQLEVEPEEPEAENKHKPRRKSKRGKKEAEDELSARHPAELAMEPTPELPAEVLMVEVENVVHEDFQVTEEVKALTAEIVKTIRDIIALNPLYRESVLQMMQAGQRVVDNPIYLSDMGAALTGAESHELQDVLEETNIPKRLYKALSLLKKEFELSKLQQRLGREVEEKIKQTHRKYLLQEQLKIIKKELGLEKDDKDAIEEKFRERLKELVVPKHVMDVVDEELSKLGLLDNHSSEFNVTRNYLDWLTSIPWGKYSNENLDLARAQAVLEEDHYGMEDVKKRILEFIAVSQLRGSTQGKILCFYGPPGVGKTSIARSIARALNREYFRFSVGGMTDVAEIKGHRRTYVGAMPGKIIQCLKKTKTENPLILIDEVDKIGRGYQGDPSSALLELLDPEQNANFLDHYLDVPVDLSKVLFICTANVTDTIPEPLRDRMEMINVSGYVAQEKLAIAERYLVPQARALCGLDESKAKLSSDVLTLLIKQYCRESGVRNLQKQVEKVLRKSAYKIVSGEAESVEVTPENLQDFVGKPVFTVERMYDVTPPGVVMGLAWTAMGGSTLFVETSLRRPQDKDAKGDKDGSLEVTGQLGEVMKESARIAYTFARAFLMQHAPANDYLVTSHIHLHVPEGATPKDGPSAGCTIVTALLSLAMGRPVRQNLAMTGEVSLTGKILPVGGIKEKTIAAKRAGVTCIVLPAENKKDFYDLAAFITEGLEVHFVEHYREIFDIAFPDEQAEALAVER
Assay: affinity purification with mass spectrometry; anti-myc Co-IP from 293/Lon cells; eluate resolved by 1-D SDS-PAGE, bands digested in gel and identified by mass spectrometry
Details: not given

binding, binds:
B1

Target: T1, Human Lon protease with Myc tag (human)
Assay: affinity purification with mass spectrometry; Lon-myc immunocomplex from 293/Lon lysate on anti-c-Myc agarose, washed with NETN, eluted by 6 M urea, in-solution digestion, shotgun nanoLC-MS/MS; three experiments, 293/myc cells as negative control
Details: not given

binding, binds:
B2
B3
B4
B5
B1
B6
B7

Target: T2, Human Lon protease with Myc tag (human), P36776
T2 chain: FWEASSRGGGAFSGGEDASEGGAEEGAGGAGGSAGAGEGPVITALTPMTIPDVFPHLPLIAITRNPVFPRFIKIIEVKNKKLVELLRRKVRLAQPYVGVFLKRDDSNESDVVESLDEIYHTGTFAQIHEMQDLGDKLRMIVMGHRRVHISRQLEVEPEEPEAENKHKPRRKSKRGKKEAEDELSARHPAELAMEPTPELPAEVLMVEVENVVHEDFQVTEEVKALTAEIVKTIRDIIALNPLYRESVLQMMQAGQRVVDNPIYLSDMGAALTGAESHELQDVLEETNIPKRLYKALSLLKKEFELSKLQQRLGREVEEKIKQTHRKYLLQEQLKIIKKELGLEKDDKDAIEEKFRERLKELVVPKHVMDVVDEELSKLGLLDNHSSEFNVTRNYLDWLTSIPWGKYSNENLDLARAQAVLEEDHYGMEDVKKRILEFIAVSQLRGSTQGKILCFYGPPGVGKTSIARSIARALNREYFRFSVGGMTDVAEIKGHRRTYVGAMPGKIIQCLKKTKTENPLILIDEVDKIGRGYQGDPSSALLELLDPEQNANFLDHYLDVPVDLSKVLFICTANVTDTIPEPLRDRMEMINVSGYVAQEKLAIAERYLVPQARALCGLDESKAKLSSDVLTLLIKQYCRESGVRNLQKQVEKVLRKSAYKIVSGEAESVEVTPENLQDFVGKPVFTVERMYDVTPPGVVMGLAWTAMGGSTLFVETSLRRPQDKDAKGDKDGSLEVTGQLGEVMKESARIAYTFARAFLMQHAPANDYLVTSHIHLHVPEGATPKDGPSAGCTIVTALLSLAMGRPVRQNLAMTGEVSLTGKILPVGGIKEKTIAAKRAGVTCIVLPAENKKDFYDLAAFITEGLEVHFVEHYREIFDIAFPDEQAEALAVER
Assay: as above
Details: remark: other sources report otherwise

binding, binds:
B8

— publication PMC4669791
